Our source for the log2 fold change values is the supplement of paper PMC10849652.

By UniProt entry, the sequences of proteins in these tests, tags left out. Where a name states a change or a piece, a line headed by the entry shows the natural chain unless it says otherwise.
UniProt P01106: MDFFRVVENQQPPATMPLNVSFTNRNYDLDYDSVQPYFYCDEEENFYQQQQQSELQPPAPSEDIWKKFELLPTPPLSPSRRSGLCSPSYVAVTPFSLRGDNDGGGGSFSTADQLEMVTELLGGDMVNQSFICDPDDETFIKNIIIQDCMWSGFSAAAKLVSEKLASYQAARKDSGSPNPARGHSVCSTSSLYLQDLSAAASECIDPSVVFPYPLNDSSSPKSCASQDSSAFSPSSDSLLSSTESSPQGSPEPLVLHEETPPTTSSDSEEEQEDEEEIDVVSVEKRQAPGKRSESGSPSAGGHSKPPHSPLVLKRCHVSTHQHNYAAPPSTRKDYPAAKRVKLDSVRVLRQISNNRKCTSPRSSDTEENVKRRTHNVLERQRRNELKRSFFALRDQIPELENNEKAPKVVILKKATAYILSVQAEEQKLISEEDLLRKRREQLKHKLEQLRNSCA
UniProt Q8WUY8: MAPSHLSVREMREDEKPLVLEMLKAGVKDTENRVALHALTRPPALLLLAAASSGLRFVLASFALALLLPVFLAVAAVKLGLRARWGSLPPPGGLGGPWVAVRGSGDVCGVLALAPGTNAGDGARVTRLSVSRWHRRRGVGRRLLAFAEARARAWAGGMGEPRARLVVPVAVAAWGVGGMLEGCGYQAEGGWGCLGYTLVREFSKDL
UniProt Q15788: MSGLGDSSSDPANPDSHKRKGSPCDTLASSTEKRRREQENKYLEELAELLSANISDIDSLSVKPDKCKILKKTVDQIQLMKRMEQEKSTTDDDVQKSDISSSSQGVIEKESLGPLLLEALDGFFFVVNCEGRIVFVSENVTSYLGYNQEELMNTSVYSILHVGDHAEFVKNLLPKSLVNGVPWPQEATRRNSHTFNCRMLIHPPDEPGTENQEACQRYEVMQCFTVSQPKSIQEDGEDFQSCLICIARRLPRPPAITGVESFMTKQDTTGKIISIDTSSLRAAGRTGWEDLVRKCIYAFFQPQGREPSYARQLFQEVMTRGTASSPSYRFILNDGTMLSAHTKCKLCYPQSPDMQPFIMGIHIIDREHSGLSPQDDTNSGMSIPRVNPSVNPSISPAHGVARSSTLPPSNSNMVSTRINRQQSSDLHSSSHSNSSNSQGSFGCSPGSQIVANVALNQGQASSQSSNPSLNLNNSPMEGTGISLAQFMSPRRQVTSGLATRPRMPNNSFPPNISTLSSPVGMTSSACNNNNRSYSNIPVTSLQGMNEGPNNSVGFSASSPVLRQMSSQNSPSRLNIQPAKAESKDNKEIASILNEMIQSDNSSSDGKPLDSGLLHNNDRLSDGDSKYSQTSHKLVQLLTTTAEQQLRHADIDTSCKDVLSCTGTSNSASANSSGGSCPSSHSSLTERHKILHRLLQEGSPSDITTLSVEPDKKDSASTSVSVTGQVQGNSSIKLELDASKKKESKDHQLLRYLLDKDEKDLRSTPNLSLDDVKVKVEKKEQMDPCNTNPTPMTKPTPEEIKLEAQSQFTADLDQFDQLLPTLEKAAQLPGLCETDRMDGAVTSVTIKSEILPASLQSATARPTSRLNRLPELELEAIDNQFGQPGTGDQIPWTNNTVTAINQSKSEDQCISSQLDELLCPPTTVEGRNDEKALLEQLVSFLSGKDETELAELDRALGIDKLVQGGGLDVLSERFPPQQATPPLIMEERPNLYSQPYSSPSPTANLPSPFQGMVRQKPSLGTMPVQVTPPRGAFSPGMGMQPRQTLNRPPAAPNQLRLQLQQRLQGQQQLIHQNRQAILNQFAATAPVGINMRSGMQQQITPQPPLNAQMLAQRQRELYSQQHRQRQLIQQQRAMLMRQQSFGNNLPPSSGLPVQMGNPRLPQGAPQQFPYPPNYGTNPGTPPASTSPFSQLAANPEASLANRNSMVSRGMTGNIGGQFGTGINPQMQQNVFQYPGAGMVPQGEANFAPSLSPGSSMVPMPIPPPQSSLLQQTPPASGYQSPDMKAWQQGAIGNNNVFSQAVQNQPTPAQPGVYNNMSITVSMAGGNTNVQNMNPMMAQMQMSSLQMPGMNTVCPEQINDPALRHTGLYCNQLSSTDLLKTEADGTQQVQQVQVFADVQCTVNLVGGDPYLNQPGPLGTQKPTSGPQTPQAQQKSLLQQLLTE
UniProt Q9NPC7: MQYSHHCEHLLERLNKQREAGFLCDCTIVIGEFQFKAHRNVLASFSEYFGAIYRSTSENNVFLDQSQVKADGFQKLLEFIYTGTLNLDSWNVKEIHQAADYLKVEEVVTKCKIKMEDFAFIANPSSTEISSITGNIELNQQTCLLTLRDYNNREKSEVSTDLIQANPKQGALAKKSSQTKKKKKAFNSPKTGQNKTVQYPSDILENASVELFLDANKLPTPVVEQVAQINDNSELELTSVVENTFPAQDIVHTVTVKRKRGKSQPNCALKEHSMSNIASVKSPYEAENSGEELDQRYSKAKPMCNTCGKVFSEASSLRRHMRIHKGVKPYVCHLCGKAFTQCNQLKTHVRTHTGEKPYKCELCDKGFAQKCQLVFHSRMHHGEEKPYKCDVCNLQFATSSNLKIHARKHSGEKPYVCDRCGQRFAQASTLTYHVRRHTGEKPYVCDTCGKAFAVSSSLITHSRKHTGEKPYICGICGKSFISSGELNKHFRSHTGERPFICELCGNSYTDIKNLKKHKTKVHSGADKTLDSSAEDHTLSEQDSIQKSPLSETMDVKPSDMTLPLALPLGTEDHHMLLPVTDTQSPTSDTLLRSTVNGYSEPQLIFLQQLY
UniProt P11055, whole entry, looked up: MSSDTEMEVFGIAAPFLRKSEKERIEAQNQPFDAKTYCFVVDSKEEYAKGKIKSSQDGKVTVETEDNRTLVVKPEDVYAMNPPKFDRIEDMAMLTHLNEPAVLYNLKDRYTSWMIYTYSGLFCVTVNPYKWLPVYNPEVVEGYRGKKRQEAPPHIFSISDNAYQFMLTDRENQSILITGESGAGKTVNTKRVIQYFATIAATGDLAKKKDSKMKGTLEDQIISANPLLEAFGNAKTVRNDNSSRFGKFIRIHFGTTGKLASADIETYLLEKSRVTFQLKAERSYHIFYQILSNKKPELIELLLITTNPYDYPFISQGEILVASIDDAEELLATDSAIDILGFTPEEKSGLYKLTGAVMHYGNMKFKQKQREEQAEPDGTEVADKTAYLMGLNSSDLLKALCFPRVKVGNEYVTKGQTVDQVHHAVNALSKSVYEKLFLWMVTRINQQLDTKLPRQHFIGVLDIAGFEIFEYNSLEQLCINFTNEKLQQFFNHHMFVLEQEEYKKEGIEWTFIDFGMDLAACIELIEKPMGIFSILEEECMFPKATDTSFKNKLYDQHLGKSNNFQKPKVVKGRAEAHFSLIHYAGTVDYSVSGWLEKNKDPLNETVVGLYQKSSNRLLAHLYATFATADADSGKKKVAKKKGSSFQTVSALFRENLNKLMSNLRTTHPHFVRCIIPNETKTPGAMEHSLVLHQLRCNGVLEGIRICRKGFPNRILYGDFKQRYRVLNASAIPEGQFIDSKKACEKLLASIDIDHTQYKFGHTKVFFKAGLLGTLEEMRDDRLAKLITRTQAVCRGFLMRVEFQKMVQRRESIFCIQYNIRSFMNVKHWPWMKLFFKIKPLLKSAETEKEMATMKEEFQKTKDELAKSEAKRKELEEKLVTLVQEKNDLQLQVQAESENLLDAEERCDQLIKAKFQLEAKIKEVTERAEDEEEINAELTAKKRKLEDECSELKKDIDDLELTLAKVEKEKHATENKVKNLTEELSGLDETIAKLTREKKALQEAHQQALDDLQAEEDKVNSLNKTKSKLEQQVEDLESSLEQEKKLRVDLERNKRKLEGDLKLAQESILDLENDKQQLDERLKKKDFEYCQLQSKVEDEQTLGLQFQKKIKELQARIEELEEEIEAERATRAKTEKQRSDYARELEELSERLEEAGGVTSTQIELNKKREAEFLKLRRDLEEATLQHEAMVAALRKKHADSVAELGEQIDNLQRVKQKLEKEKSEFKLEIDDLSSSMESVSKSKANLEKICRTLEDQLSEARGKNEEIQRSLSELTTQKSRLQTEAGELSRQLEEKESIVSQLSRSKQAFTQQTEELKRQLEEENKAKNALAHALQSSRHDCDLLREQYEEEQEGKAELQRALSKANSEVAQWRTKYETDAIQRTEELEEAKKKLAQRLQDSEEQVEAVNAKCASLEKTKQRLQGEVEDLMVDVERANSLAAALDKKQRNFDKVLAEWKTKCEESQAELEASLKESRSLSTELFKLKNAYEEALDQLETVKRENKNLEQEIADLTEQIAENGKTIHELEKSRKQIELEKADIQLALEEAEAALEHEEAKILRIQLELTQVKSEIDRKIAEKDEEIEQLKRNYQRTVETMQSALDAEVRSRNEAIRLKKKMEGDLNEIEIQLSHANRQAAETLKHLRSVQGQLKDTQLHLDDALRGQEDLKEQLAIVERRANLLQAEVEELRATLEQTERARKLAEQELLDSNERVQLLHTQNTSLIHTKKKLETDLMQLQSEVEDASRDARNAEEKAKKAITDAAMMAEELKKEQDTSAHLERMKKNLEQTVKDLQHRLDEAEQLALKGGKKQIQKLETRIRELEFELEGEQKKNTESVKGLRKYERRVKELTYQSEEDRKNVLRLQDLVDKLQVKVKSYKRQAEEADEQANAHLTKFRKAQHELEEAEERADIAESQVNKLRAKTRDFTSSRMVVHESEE

Some of the results follow.

Assay in all cases: log2 fold change, soluble protein after heating vs DMSO (PISA); higher = thermal stabilisation; K562 lysate, 10 uM; active = over 0.2 and 3.5 SD of the protein, either way, in both replicates (recomputed)
Compound in assay [1]: c1ccc([C@@H]2C[C@H]2NC2CCNCC2)cc1
Put shortly:
(§1)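 Values give the log-two fold change in thermal stability against solvent controls, from duplicates. Crude K562 extract at 1 mg/mL protein, made by dounce homogenisation in PBS pH 7.4 with 1 mM MgCl2, was treated with 10 μM compound for 30 min. After 3 min heating across 48°C-58°C, aliquots were pooled, adjusted to 0.5% NP-40 at 4°C and centrifuged at 21,000xg for 90 min. The supernatant was measured by TMTpro 16plex LC-MS/MS with channel sums equalised.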

Compound in assay [2]: CC1=C2C(=CC=C1)N=C(N(C2=O)C3=CC=CC=C3C)CN4C=NC5=C(N=CN=C54)N
Put shortly: as §1

Compound in assay [3]: Cc1sc2c(c1C)C(c1ccc(Cl)cc1)=N[C@@H](CC(=O)OC(C)(C)C)c1nnc(C)n1-2
The gist of the method:
as §1

On to MYC isoform 2 (UniProt P01106), for which the log2 fold change in assay [1] was inactive: -0.022.

As to NAT14 (UniProt Q8WUY8), the values for the log2 fold change in assay [2], in assay [3] and in assay [1] were inactive: -0.025, inactive: -0.061 and inactive: 0.113, respectively.

As to MYOF (UniProt Q9NZM1), in assay [3], the log2 fold change was inactive: -0.096.

On to NCOA1 isoform 2 (UniProt Q15788), for which the log2 fold change is inactive: -0.069 in assay [2], inactive: 0.015 in assay [3] and inactive: 0.105 in assay [1].

MYNN (UniProt Q9NPC7): the log2 fold change in assay [2] was inactive: -0.027; in assay [3], inactive: 0.16.

For MYH3 (UniProt P11055), the log2 fold change was inactive: -0.068 in assay [2], inactive: 0.096 in assay [3] and inactive: 0.031 in assay [1].
